Source: paper doi:10.1101/2025.06.14.659664 (bioRxiv, 2025)
These are yes or no findings as the source states them, for the method shown. Tags and fused reporters may be left off the sequences shown.

Molecular target: GBI-Uba7-UFD fusion protein (human Uba7 ubiquitin-fold domain, residues 903-1011), wild type (human) (UniProt P41226)
Assay: NMR 15N relaxation

B1: GBI-Uba7-UFD fusion protein (human Uba7 ubiquitin-fold domain, residues 903-1011), wild type (domain or fragment, UniProt P41226 903-1011, looked up)
chain: IQTFHHLKWTSWDRLKVPAGQPERTLESLLAHLQEQHGLRVRILLHGSALLYAAGWSPEKQAQHLPLRVTELVQQLTGQAPAPGQRVLVLELSCEGDDEDTAFPPLHYE
Q: With B1 as the binder, how does the binding read?
A: no binding
